Data reported in the supplement of paper PMC12819154, “High-throughput peptide-centric local stability assay extends protein–ligand identification to membrane proteins, tissues and bacteria” (Nature Structural & Molecular Biology, 2025).
Some of the results follow. Most values lie at the level of the controls, where differences are scatter.

By UniProt entry, the sequences of proteins in these tests, tags left out. Where a name states a change or a piece, a line headed by the entry shows the natural chain unless it says otherwise.
UniProt Q96AY4: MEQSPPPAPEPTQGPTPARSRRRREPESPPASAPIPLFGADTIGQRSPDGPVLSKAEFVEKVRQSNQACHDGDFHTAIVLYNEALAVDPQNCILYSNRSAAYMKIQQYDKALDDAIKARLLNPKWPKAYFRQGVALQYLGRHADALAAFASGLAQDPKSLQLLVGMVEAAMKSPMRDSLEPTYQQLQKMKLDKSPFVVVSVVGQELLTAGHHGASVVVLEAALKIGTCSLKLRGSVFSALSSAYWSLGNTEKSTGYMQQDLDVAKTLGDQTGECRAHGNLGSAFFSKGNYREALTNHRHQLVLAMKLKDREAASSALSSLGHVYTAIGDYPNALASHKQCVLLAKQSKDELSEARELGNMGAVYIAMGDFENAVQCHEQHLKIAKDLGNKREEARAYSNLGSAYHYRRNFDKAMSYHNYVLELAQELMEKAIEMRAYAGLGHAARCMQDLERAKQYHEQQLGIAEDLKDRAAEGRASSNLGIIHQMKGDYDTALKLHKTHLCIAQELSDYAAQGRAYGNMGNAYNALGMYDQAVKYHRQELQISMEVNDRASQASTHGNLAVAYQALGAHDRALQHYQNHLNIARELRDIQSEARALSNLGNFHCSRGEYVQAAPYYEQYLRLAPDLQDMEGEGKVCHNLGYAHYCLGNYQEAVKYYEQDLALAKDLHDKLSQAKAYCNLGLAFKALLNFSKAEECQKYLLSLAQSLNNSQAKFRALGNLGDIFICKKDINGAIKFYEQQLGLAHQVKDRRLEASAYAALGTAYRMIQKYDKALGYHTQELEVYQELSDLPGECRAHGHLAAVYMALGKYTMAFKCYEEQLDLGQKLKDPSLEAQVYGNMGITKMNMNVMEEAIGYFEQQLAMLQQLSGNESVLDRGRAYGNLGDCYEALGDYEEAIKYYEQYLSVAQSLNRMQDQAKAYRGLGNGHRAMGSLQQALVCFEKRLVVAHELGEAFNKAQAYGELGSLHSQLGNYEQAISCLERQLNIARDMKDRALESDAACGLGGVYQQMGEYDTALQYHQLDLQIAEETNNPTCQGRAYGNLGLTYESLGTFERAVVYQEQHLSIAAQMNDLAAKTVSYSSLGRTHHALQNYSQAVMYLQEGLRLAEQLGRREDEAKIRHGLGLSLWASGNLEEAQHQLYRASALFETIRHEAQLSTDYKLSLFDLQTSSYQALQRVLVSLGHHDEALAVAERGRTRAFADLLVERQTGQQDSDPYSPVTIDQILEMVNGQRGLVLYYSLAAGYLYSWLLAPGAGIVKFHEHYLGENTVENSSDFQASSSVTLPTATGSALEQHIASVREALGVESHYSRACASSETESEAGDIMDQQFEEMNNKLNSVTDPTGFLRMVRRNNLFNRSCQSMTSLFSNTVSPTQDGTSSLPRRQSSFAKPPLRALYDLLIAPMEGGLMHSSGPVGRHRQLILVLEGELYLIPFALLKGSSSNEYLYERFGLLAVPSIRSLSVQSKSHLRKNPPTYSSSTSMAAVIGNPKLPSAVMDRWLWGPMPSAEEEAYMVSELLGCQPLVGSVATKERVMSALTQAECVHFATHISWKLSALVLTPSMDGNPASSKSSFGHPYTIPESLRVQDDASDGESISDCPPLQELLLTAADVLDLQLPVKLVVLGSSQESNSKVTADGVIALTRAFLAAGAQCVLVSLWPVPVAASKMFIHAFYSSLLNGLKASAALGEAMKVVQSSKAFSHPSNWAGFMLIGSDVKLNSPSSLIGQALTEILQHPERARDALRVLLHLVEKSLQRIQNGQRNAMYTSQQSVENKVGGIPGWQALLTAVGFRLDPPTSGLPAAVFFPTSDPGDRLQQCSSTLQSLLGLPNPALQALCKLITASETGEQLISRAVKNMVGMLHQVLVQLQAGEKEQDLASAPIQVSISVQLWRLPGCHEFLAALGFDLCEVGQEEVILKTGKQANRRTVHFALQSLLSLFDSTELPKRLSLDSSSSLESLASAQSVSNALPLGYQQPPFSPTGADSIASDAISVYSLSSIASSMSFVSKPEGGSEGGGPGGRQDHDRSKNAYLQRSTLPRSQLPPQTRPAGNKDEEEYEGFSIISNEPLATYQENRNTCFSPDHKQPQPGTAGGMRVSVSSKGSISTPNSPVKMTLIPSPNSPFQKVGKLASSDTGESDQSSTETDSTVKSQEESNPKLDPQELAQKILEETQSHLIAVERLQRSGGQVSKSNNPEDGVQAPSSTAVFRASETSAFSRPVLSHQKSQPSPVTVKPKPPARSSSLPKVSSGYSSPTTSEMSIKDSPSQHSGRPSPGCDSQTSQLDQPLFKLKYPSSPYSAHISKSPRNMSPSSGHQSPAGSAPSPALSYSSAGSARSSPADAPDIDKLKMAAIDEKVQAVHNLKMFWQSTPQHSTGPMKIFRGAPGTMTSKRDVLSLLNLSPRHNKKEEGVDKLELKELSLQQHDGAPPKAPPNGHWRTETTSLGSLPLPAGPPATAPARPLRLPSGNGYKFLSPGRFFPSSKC
UniProt Q96B97, whole entry: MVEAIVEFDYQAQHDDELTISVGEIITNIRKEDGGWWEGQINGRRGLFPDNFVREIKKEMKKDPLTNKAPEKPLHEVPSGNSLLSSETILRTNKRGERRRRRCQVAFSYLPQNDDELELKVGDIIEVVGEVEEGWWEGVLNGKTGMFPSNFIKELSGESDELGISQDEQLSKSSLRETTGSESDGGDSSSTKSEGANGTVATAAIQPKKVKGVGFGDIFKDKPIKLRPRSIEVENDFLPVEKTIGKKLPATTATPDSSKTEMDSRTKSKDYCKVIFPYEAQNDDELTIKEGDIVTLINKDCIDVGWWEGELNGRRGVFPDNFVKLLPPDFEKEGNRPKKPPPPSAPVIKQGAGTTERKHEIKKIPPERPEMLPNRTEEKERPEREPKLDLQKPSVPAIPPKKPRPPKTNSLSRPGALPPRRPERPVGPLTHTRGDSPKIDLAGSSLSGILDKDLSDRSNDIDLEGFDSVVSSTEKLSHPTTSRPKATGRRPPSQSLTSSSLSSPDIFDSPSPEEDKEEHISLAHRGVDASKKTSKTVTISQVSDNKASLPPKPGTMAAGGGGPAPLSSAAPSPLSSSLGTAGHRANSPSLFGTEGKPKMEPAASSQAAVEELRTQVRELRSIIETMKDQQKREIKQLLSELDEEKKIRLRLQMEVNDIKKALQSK
UniProt Q96G25: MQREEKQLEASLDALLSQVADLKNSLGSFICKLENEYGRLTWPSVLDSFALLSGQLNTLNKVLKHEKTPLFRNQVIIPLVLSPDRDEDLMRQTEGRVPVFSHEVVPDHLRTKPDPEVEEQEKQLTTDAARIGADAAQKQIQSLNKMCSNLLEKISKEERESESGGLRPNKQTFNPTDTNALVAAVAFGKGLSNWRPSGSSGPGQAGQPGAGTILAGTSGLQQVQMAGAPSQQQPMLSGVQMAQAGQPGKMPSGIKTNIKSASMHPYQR
UniProt Q96AE4: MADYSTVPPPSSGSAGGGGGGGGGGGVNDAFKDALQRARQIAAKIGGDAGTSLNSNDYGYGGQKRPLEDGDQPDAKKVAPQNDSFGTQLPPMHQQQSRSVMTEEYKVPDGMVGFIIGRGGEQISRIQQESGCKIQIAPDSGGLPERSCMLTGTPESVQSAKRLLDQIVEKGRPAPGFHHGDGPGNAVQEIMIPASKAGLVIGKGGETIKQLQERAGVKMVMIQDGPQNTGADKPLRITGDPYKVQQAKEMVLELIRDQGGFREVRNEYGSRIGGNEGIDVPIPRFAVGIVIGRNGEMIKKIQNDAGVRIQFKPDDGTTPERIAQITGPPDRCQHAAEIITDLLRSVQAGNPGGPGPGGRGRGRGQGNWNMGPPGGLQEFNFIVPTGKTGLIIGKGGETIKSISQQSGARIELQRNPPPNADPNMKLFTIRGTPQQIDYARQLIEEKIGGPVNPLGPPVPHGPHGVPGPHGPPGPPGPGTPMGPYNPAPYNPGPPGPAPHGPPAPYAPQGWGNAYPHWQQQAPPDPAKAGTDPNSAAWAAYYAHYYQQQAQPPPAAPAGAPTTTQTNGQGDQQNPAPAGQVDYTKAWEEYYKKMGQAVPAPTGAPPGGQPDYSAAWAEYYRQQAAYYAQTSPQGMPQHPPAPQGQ
UniProt Q96E09: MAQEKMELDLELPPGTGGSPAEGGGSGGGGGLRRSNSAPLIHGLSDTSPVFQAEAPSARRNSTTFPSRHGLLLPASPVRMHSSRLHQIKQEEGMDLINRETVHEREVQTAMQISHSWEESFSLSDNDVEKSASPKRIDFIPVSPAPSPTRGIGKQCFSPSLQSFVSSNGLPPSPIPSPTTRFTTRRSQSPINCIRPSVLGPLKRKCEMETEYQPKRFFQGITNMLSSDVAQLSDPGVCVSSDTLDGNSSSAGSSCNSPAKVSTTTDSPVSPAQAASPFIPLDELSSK
UniProt Q92966: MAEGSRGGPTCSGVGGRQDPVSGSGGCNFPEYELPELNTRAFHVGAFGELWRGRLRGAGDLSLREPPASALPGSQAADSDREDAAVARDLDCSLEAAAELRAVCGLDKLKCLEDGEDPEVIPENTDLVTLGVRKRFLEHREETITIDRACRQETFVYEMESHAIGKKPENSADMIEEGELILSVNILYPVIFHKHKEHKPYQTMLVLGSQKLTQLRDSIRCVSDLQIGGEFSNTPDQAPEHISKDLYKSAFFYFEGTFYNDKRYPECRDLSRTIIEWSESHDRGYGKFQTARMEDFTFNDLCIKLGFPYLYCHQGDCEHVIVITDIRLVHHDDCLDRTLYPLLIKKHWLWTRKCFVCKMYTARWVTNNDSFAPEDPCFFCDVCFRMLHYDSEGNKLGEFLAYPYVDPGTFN
UniProt Q96F44: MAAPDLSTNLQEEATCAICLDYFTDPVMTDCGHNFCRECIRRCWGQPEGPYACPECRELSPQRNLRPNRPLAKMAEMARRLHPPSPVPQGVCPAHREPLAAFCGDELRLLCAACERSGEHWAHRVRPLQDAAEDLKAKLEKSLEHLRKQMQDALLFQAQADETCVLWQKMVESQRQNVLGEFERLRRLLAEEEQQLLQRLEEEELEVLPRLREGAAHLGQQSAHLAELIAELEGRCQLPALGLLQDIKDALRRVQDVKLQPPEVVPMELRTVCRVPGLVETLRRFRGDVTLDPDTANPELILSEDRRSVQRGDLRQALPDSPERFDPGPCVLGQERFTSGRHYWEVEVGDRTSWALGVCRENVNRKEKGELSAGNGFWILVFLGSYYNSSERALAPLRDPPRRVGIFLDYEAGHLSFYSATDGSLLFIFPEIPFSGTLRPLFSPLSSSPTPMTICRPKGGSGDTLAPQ
UniProt Q969M7: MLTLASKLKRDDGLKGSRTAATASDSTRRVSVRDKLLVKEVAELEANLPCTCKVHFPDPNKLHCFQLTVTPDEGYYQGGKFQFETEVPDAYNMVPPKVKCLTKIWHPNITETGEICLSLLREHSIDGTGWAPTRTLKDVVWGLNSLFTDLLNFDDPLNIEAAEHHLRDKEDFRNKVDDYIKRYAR
UniProt Q96F05: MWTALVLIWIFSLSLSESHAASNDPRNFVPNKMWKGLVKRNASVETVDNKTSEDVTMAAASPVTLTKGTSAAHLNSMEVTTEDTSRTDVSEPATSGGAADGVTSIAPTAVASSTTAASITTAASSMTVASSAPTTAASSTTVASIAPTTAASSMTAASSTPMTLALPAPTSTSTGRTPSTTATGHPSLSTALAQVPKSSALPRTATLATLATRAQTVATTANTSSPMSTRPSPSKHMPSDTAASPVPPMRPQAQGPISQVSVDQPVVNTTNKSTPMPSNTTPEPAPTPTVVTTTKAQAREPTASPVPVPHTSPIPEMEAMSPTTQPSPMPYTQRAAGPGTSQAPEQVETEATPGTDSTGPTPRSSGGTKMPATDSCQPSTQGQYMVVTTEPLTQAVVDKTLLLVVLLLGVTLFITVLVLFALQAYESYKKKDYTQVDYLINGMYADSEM
UniProt Q93096: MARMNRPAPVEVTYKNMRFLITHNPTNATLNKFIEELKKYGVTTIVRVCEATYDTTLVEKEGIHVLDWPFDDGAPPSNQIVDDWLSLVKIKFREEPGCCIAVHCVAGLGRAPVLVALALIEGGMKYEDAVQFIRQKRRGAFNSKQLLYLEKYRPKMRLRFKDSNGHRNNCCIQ
UniProt Q96B01: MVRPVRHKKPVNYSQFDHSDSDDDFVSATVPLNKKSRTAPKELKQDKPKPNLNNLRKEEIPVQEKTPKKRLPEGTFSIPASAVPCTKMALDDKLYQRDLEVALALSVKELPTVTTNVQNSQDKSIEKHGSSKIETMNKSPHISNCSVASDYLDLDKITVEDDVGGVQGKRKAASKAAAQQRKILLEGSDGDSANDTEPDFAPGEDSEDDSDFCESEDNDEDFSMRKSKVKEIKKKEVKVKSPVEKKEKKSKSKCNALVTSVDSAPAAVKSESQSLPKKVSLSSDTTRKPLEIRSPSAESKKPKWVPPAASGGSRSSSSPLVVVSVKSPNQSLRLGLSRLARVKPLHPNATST
UniProt Q96AB3: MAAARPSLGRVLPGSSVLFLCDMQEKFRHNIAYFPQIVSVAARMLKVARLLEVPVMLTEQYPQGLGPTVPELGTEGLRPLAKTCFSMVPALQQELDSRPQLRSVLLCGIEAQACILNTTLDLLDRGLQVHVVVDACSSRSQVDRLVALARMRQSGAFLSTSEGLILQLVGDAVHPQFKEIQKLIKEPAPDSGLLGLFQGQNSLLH

Each target was assayed with CN[C@@H]1C[C@H]2O[C@@](C)([C@@H]1OC)n1c3ccccc3c3c4c(c5c6ccccc6n2c5c31)C(=O)NC4 [staurosporine] (assay: log2 fold change of tryptic peptide abundance, ligand vs vehicle (limited proteolysis) (log2 ratio); higher = more trypsin-susceptible (destabilized)). Details: ligand concentration: 20 uM; sample: K562 cleared lysate; digestion: 4 min, 22 C (HT-PELSA RT4min, Orbitrap Astral).
Target “TTC28 (peptide sequence: ALSNLGNFHCSR, peptide start residue: 596) (UniProt Q96AY4)” has a log2 fold change of 0.691.
In the case of “OTUD5 (peptide sequence: ESYLQWLRDQEK, peptide start residue: 405) (UniProt Q96G74)”, the log2 fold change is reported as 0.721.
Target “SH3KBP1 (peptide sequence: GVGFGDIFKDKPIK, peptide start residue: 212) (UniProt Q96B97)” has a log2 fold change of 0.344.
Target “NACC2 (peptide sequence: DGVAVAAGAAVAAGTAPLKLPR, peptide start residue: 199) (UniProt Q96BF6)” has a log2 fold change of -0.191.
“KAT5 (peptide sequence: KLFYVHYIDFNKR, peptide start residue: 41) (UniProt Q92993)” showed a log2 fold change of -0.6.
With “UniProt Q96BN2 (peptide sequence: LLTQDNVHSHNDFLLAILTR, peptide start residue: 50)” the log2 fold change was -0.0917.
In the case of “ZNF669 (peptide sequence: STHTGEKPYECK, peptide start residue: 382) (UniProt Q96BR6)”, the log2 fold change is reported as -0.965.
With “UniProt Q92841 (peptide sequence: RCDDLTRR, peptide start residue: 430)” the log2 fold change was 0.587.
With “UniProt Q96G04 (peptide sequence: CFLSELIK, peptide start residue: 72)” the log2 fold change was 0.219.
With “UniProt Q96CK0 (peptide sequence: LAAYLISLER, peptide start residue: 83)” the log2 fold change was -0.197.
“MRPL38 (peptide sequence: EYFGEKTDPKEK, peptide start residue: 76) (UniProt Q96DV4)” showed a log2 fold change of 0.47.
“NRBF2 (peptide sequence: YEEAISCHK, peptide start residue: 27) (UniProt Q96F24)” showed a log2 fold change of 0.491.
With “MED8 (peptide sequence: QTEGRVPVFSHEVVPDHLR, peptide start residue: 92) (UniProt Q96G25)” the log2 fold change was -0.626.
For “FUBP1 (peptide sequence: GTPQQIDYAR, peptide start residue: 431) (UniProt Q96AE4)”, the log2 fold change was 0.139.
With “FAM122A (peptide sequence: SQSPINCIRPSVLGPLK, peptide start residue: 187) (UniProt Q96E09)” the log2 fold change was 0.102.
Target “SNAPC3 (peptide sequence: AVCGLDKLK, peptide start residue: 102) (UniProt Q92966)” has a log2 fold change of 0.147.
“TRIM11 (peptide sequence: VPGLVETLR, peptide start residue: 275) (UniProt Q96F44)” was tested, and the log2 fold change was -0.167.
In the case of “CYFIP2 (peptide sequence: GLQVLMGR, peptide start residue: 460) (UniProt Q96F07)”, the log2 fold change is reported as 0.337.
For “UBE2F (peptide sequence: NKVDDYIKR, peptide start residue: 174) (UniProt Q969M7)”, the log2 fold change was 0.167.
Target “C11orf24 (peptide sequence: TATLATLATR, peptide start residue: 204) (UniProt Q96F05)” has a log2 fold change of 0.227.
“MRPS24 (peptide sequence: GDKPVTYEEAHAPHYIAHR, peptide start residue: 47) (UniProt Q96EL2)” showed a log2 fold change of -0.317.
Target “RNF25 (peptide sequence: GPGSWQGPPPRR, peptide start residue: 402) (UniProt Q96BH1)” has a log2 fold change of 0.229.
For “UniProt Q93096 (peptide sequence: FLITHNPTNATLNK, peptide start residue: 16)”, the log2 fold change was 0.283.
“UniProt Q92888 (peptide sequence: EILHHVNQAVR, peptide start residue: 597)” showed a log2 fold change of 0.175.
Target “RAB8B (peptide sequence: MNDSNSAGAGGPVK, peptide start residue: 177) (UniProt Q92930)” has a log2 fold change of 0.00195.
“RAD51AP1 (peptide sequence: KEEIPVQEK, peptide start residue: 57) (UniProt Q96B01)” was tested, and the log2 fold change was 0.3.
Target “ISOC2 (peptide sequence: AAARPSLGR, peptide start residue: 2) (UniProt Q96AB3)” has a log2 fold change of -0.285.
